Laboratory results from US20080161273A1, “Method of Using Adapalene in Acne Maintenance Therapy” (GALDERMA RESEARCH & DEVELOPMENT, priority 2004, published 2008).

Assays:
[1] = 16-week maintenance therapy study: safety, local facial tolerability, adverse events, discontinuation; assay type: in vivo, human; details: 16-week study, all reasons
Source text: The efficacy and safety of the adapalene gel 0.1% (Galderma Laboratories, LP, Ft. Worth, Tex.) as a maintenance therapy were compared to gel vehicle in a randomized, multicenter, vehicle-controlled, investigator-blind, parallel group study conducted at 34 centers in the United States between Nov. 13, 2003 and May 25, 2004. This study was designed to set a high threshold for achieving success. […] These subjects were re-randomized consecutively in a 1:1 ratio to receive either adapalene gel 0.1% or adapalene gel vehicle once-daily in the evening for an additional 16 weeks. Subjects were stratified by the treatment assignment received in the previous study using an interactive voice responsive system. The randomization schedule remained blinded from those involved in the clinical conduct of the study. The integrity of the blinding was ensured by packaging the topical medication in identical tubes and requiring a third party other than the investigator/evaluator to dispense the medication.
Safety and tolerability were assessed through evaluations of local facial tolerability and adverse events. […] Mean scores at each postbaseline visit and worst score (worst observation recorded for a subject during the post-baseline period) were recorded. Adverse events were also evaluated at each visit.
Three study populations were analyzed. […]

[2] = 5-question subject satisfaction survey at last visit of the maintenance study; assay type: in vivo, human
Source text: The primary efficacy variable was the failure rate at week 16, defined as the percentage of subjects unable to maintain 50% of total lesion count improvement from the previous 12-week combination therapy study (e.g., a subject entering the maintenance phase after having lost 40 lesions in the combination study was considered as a failure if the lesion count at the end of the maintenance study was increased by more than 20 lesions). Data from this assessment is presented graphically herein as a maintenance rate, which is simply 100% minus the failure rate. Secondary efficacy variables included lesion counts (total, inflammatory and non inflammatory), failure rates for inflammatory and non-inflammatory lesions, as well as global severity and global improvement of the disease. At the last visit, subject satisfaction was assessed via a 5-question survey.

COc1ccc(-c2ccc3cc(C(=O)O)ccc3c2)cc1C12CC3CC(CC(C3)C1)C2 [adapalene, 6-[3-(1-adamantyl)-4-methoxyphenyl]-2-naphtoic acid]
discontinuation rate [1]: 11.1%
subjects "very satisfied" or "satisfied" with the treatment effectiveness ([2]; P=0.003 vs vehicle): 75%
subjects "very satisfied" or "satisfied" with the overall maintenance treatment ([2]; P=0.01 vs vehicle): 76%
subjects "very satisfied" or "satisfied" with the overall treatment scheme beginning with the combination therapy ([2]; P=0.02 vs vehicle): 84%
subjects who felt better about themselves after the study ([2]; P=0.41 vs vehicle): 73%
